Where two headings read alike, the source gives them in different places. Results are given in words; binding and its absence hold for the method and conditions named. In cells and extracts the contact can be indirect. Some entries that bind do so weakly or less than the wild type.
Legend:
Assay in all cases: co-IP
[1] = molecular target: endogenous SP140 (wild-type) (human (endogenous in THP1 and LBL)) (UniProt Q13342)
[2] = molecular target: endogenous SP140 (wild-type) (human (endogenous in THP1 and LBL)) (UniProt Q13342); remark: listed apart in the source
[3] = molecular target: FLAG-tagged human SP140 (Speckled Protein 140) (human) (UniProt Q13342)
[4] = molecular target: HA-Aire (Autoimmune Regulator, AIRE) (UniProt O43918)
[5] = molecular target: FLAG-tagged human SP140 (Speckled Protein 140) (human) (UniProt Q13342); remark: listed apart in the source
[6] = molecular target: Topoisomerase I (TOP1) (human (endogenous in HEK293T, THP1, LBL)) (UniProt P11387)
[7] = molecular target: Facilitates chromatin transcription (FACT) complex subunit SPT16 (SUPT16H) (human (endogenous in HEK293T, THP1, LBL)) (UniProt Q9Y5B9)
[8] = molecular target: DNA-dependent protein kinase (DNA-PK) (human (endogenous in HEK293T, THP1, LBL)) (UniProt P78527)
[9] = molecular target: FACT complex subunit SSRP1 (SSRP1) (human (endogenous in HEK293T, THP1, LBL)) (UniProt Q08945)
[10] = molecular target: Topoisomerase II alpha (TOP2A) (human (endogenous in HEK293T, THP1, LBL)) (UniProt P11388)

Chains of the proteins cited; added tags and fusions are not shown.
UniProt Q13342, whole entry: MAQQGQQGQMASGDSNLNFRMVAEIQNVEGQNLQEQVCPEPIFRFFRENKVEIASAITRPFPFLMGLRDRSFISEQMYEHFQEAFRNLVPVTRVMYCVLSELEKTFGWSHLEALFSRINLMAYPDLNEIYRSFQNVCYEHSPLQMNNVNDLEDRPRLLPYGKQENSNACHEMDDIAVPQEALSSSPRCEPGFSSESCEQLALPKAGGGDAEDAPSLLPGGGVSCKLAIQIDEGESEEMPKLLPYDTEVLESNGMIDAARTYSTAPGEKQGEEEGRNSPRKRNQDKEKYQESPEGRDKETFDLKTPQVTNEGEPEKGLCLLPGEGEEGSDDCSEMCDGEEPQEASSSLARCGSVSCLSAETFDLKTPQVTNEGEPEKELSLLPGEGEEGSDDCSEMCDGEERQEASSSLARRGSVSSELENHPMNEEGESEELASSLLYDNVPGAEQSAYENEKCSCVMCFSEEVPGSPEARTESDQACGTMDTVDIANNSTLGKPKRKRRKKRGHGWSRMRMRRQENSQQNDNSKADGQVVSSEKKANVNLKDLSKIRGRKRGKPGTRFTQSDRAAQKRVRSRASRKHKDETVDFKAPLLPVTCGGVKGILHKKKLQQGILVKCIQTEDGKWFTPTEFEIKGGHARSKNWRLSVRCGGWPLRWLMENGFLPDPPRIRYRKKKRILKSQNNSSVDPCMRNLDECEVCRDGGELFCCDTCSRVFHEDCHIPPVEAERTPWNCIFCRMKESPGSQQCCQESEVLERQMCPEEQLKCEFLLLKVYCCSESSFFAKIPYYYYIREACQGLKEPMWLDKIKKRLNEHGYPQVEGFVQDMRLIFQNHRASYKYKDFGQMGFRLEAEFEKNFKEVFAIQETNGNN
UniProt P11387, whole entry: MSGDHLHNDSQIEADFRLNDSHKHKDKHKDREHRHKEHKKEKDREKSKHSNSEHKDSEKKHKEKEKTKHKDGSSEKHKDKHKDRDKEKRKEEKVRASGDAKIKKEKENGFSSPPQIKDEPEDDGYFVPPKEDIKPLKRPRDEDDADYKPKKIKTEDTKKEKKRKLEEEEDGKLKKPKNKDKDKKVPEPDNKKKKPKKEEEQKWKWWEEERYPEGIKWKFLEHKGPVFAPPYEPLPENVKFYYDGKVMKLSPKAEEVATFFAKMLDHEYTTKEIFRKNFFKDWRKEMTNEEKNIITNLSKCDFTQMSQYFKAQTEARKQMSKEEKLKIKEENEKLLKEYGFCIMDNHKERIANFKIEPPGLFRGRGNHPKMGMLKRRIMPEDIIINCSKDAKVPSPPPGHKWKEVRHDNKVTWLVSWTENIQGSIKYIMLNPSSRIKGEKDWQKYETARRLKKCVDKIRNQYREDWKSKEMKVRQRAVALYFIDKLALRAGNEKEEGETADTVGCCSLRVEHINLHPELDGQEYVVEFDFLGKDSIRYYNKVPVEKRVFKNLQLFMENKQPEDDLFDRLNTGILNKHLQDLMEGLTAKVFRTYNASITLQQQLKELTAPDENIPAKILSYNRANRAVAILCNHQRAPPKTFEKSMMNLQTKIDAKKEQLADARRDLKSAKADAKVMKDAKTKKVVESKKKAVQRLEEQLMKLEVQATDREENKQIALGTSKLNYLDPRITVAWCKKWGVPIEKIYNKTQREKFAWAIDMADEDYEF
UniProt P78527, whole entry: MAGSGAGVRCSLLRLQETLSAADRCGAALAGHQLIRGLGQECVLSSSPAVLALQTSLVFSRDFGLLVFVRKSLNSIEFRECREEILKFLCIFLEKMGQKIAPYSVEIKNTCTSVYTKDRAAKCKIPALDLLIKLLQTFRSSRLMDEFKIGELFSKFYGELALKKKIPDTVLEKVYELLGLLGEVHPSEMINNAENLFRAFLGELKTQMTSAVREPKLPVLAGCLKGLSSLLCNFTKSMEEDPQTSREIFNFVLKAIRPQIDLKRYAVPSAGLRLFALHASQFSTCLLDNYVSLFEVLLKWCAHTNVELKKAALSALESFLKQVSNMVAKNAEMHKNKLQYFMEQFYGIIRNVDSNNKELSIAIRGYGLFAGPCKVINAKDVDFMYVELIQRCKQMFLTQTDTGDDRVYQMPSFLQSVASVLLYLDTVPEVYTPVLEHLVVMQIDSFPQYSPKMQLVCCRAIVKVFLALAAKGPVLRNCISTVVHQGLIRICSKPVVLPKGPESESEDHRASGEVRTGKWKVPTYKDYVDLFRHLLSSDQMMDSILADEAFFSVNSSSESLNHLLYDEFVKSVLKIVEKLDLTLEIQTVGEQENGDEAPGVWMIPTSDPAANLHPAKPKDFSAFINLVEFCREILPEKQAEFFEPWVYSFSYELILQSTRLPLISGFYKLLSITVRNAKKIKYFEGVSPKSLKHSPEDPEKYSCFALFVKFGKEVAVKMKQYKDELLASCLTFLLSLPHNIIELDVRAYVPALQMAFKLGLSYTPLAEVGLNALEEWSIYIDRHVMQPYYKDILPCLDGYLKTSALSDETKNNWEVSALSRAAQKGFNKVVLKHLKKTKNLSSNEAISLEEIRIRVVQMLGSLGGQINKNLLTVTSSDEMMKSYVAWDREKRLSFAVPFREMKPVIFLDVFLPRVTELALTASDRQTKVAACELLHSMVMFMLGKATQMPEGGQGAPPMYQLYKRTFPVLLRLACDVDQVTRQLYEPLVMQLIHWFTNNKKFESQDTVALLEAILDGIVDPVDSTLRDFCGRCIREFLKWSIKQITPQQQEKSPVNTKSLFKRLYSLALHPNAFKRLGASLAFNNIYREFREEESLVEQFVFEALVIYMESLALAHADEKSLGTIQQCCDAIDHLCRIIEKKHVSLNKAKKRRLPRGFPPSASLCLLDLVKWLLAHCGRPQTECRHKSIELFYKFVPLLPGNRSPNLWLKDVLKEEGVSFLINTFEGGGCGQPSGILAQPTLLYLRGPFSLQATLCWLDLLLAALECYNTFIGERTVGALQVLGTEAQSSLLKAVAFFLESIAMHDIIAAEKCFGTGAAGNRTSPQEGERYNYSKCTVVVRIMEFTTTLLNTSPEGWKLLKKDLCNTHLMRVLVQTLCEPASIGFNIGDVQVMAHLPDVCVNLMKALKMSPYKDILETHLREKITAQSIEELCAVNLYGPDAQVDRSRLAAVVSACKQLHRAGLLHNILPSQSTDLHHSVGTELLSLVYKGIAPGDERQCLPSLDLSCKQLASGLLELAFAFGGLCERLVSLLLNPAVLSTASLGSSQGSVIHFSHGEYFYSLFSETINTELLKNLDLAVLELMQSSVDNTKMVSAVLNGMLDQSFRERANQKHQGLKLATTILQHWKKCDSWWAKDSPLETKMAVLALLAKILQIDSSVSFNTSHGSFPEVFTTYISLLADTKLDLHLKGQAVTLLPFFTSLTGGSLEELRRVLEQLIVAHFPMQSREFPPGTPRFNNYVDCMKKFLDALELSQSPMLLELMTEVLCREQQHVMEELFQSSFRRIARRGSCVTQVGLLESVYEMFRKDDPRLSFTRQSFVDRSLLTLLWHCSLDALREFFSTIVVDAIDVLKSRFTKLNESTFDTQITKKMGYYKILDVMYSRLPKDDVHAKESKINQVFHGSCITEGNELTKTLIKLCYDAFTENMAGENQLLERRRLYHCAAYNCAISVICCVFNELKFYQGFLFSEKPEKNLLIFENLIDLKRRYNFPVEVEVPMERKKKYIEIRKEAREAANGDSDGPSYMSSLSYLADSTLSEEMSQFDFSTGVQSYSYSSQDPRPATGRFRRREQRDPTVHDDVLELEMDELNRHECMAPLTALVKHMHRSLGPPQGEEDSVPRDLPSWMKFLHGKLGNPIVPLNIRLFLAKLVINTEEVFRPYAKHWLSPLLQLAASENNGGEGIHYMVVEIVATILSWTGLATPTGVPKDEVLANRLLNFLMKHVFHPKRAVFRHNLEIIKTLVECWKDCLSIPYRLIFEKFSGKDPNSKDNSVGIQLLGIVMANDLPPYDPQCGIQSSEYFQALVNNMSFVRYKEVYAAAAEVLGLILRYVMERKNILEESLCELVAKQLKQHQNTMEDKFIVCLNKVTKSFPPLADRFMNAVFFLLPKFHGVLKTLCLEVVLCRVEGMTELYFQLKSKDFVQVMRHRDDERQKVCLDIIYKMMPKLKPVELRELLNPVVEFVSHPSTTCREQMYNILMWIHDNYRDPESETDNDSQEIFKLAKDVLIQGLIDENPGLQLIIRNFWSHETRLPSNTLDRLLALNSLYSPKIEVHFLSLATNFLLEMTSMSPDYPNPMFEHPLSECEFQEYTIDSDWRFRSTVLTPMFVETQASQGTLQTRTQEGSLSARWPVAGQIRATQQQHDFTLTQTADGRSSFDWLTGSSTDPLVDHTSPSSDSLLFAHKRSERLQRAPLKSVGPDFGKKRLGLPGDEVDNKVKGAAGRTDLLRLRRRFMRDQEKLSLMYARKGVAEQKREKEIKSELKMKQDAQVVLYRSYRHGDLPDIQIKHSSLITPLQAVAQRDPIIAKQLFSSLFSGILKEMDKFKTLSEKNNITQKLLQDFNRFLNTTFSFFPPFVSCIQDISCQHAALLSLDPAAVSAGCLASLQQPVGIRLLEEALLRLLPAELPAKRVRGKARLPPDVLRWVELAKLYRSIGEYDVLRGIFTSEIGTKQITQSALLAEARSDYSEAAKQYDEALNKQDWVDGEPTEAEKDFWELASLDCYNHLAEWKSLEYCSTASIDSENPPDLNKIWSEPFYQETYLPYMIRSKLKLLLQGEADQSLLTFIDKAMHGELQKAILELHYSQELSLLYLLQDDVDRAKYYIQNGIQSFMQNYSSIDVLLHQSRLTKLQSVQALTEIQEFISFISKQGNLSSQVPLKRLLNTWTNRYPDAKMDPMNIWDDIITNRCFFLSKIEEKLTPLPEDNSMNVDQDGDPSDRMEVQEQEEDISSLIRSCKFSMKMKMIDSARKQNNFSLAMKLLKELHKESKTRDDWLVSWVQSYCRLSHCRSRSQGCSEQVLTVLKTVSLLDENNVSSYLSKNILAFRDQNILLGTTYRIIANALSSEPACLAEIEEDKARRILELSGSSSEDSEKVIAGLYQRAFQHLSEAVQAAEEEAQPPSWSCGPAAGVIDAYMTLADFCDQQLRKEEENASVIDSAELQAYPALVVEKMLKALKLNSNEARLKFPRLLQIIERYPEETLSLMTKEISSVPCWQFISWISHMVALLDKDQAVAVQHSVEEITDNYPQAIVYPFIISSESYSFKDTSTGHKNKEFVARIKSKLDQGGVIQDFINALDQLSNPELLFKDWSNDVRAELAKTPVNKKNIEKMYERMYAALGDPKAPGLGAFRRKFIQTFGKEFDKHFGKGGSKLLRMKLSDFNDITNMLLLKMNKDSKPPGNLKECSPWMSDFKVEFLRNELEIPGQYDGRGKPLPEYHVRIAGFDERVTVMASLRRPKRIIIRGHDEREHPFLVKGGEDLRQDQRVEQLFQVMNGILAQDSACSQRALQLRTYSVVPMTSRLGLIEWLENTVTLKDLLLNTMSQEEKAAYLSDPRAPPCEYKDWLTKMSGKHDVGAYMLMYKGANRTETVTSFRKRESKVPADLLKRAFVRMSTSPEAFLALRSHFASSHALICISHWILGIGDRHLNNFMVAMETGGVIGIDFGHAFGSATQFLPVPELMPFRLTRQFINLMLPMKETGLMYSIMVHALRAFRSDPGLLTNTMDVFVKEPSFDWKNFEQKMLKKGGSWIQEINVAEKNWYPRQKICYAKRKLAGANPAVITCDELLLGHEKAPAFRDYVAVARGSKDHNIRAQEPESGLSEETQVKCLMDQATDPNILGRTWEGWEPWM
UniProt Q08945, whole entry: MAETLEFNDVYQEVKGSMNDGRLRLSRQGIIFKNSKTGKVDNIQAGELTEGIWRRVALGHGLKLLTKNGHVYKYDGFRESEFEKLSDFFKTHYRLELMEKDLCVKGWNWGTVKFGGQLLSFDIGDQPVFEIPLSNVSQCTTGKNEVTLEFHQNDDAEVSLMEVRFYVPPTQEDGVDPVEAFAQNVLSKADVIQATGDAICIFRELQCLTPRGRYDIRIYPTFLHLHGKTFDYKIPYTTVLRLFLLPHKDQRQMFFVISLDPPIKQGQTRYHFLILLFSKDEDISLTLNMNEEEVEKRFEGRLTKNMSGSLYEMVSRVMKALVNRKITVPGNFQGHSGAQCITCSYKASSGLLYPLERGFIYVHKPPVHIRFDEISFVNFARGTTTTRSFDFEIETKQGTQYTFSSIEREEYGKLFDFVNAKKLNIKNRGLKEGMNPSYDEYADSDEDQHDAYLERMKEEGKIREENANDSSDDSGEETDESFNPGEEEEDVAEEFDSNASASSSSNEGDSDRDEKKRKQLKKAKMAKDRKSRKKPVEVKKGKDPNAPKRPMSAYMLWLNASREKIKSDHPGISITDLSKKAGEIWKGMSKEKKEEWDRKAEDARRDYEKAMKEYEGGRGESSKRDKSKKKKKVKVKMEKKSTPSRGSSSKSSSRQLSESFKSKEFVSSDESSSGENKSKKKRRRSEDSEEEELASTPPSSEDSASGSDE

Measured: binding

Topoisomerase I (TOP1) (from UniProt P11387 1-765) (enzyme)
binds: [1] | [2] | [3] | [4] | [5]

Facilitates chromatin transcription (FACT) complex subunit SPT16 (SUPT16H) (from UniProt Q9Y5B9 1-1047)
binds: [1] | [2] | [3]

DNA-dependent protein kinase (DNA-PK) (from UniProt P78527 1-4128) (enzyme)
binds: [1] | [2] | [3]

FACT complex subunit SSRP1 (SSRP1) (from UniProt Q08945 1-709)
binds: [1] | [2] | [3]

FLAG-tagged human SP140 (Speckled Protein 140) (from UniProt Q13342 1-867)
binds: [6] | [7] | [8] | [9] | [10]

Topoisomerase II beta (TOP2B) (from UniProt Q02880 1-1626) (enzyme)
binds: [1] | [2] | [3]

SWI/SNF-related matrix-associated actin-dependent regulator of chromatin subfamily A member 5 (SMARCA5) (from UniProt O60264 1-1052) (enzyme)
binds: [2] | [3]

Reference: publication doi:10.1101/2021.09.20.461083
